Two substances from publication PMC9727282 can be followed below.

Chains of the proteins cited; added tags and fusions are not shown.
UniProt Q01650: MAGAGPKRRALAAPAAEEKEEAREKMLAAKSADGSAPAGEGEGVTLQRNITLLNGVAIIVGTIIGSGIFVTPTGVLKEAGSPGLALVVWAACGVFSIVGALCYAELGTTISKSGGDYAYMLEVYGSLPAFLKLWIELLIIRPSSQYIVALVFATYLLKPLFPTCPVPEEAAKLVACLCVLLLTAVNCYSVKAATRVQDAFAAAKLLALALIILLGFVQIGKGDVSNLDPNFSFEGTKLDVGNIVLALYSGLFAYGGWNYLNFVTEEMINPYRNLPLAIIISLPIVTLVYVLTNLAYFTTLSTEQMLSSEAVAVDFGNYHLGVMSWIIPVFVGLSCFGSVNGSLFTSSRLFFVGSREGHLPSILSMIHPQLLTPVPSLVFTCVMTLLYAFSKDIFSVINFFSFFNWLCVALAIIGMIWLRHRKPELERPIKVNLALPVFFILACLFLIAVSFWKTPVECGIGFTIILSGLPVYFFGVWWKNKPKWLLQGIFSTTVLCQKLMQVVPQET
UniProt P17028: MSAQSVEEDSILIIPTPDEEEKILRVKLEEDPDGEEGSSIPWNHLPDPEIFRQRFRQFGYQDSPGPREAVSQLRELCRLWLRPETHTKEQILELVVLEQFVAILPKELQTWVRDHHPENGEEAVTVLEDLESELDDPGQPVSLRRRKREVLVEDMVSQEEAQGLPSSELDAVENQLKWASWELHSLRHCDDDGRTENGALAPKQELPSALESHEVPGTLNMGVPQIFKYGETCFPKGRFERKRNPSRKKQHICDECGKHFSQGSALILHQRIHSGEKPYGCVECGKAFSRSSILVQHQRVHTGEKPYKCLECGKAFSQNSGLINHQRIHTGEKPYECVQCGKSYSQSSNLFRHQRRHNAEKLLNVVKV

Results are given in words; binding and its absence hold for the method and conditions named. For some assays here: In cells and extracts the contact can be indirect.

The target of one assay is SLC7A5-myc (human) (UniProt Q01650). The assay can be described thus: pull-down; SLC7A5-myc and ZNF24-3×Flag cotransfected into HEK293T; lysate on anti-Myc or anti-Flag magnetic beads overnight at 4 °C; elution with c-Myc or 3×Flag peptide.
The next assay addresses SLC7A5-pGBKT7 (human) (UniProt Q01650). The assay can be described thus: two-hybrid; SLC7A5-pGBKT7 and ZNF24-pGADT7 cotransformed into yeast AH109; spots on SD-TL, SD-TLH, SD-TLHA, SD-TLHA + x-α-Gal.

Turning to “ZNF24-3×Flag (from UniProt P17028 1-368)”, the binding result with SLC7A5-myc (human) is listed as “no binding”.

Consider “ZNF24-pGADT7 (from UniProt P17028 1-368)”, for which, in the assay with SLC7A5-pGBKT7 (human), the binding entry was “no binding”.
